Results from patent US20100234238A1, “METHOD FOR PROFILING KINASE INHIBITORS” (Janssen Pharmaceutica N V, priority 2006, published 2010).
Further values from the same series stand in other lists.

Tested on: tyrosine kinase activity in lysates prepared from cell lines
Experiment: PAMCHIP96 tyrosine peptide array profiling of lysates of 27 cell lines in absence or presence of MTKI
Assay type: biochemical
Conditions: 5 μM
Excerpt: PAMGENE technology using the tyrosine peptide PAMCHIP96 allows the kinetic detection of the phosphorylation of 144 tyrosine peptides spotted onto a 3-dimensional porous well of a 96-well plate (www.pamgene.com). This technology can be used to measure the activity of purified kinases and the effects of kinase inhibitors thereon. Phosphotyrosine peptides are detected using a mix of fluorescently labeled anti-phosphotyrosine antibodies. Phosphorylation of peptides can be followed in real time due to the possibility of removing the reaction mix for a few seconds during the assay by a pumping mechanism to allow CCD camera detection of phosphopeptides bound to the fluorescent antibody. These consecutive datapoints (quantified spot images) generate a kinetic curve for each individual peptide, and allow for the calculation of initial velocities and endpoints associated with each individual peptide.
Cells cultured in appropriate medium in T175 flasks, treated with compound if necessary, are harvested at 70-90% confluency.
Media is removed, cells are washed with 10 ml ice cold PBS containing 0.1 mM NaVO4 and lysed in 1 ml of M-PER buffer (PIERCE) containing phosphatase and protease inhibitors (HALT, PIERCE). Cells are collected by scraping, and centrifuged for 10 minutes at 12 000×g. Supernatant lysates are filtered through a 0.2 micrometer filter (Anotop 0.2 μm anopore filter; Whatmann). Lysates are flash frozen in liquid nitrogen and stored at −80C.
Just prior to the PAMCHIP experiment, total protein content is quantitated in the lysates and lysates are diluted to 1 mg/ml in a total volume of 200 μl, with M-PER phosphatase and protease inhibitors (HALT, PIERCE). 10 μg of total lysate (corresponding to 10 μl) will be used per well on the PAMCHIP96.
To all 200 μl lysates 10 units of benzonase (Novagen) is added and lysates are further incubated for 30 min on ice and next centrifuged for 10 minutes at 12 000×g. The supernatant is then 1:1 diluted with compound or DMSO diluted to the appropriate concentration in water, and lysates are further incubated exactly 60 min on ice. Meanwhile, a PAMCHIP96 tyrosine peptide chip (PAMGENE) is blocked with 2% BSA (filtered through a 0.2 μm anopore filter; Whatmann) using the standard setting of a PAMSTATION96 (PAMGENE).
The composition of the kinase buffer is as follows: 1×ABL buffer (NEB), 0.5 mg/ml BSA (from 10 mg/ml NEB stock), 100 μM ATP (dissolved and diluted in 1×ABL buffer), 5 μg/ml PY20-FITC (ExAlpha Biologicals, azide-free preparation). A twofold concentrated kinase buffer is prepared chilled on ice, DMSO or compound is added as appropriate, and the solution is added 1:1 to the (compound treated) ice cold lysates, and immediately applied to a tyrosine peptide PAMCHIP96. The assay is run on a PAMSTATION96 according to standard procedures: after loading of the plate, solution is pumped once onto the wells, a first exposure is read (150 mSec) and then a kinetic reading program (reading every 5 min for 150 mSec) is run for 60 min. Lysates are run in 6 technical replicates for each condition; replicates are always applied horizontally next to each other to avoid vertical strip effects of the chip.
The data (spot images) are further quantified and linked to the peptide identities using EVOLVE PAMGRID software (PAMGENE). The quantified data are then fit to a curve using CurveFitHT software (PAMGENE) using the Vinip2 curve fitting algorithm, applied on the first 30 min of the assay; the initial velocity is derived at the first kinetic time point read. All subsequent data analyses were done on initial velocities (Vini) using the software packages Omniviz and R (Ihaka, R. and Gentlemen, R. (1996) R: a language for data analysis and graphics. J. Comput. Graph. Stat., 5, 299-314).
After replacing the Vini's lower than 0.1 by 0.1, all Vini's were log 2-transformed to approach normality.

Q: What does the source list for COc1cc2ncnc3c2cc1OCCCCCN(C)Cc1ccc(Br)cc1N3 [MTKI, 4,6-ethanediylidenepyrimido[4,5-b][6,1,12]benzoxadiazacyclopentadecine, 17-bromo-8,9,10,11,12,13,14,19-octahydro-20-methoxy-13-methyl-]?
A: ratio of initial velocity of peptide phosphorylation (H23 lysate, TYRO3_679_691_Y686): 1.10; ratio of initial velocity of peptide phosphorylation (H322 lysate, GSK3B_209_221_Y216): 0.94; ratio of initial velocity of peptide phosphorylation (H1650 lysate, CDK7_157_169_S164): 0.82; ratio of initial velocity of peptide phosphorylation (H1650 lysate, CREB1_122_134_Y134/S133): 0.88; ratio of initial velocity of peptide phosphorylation (H1650 lysate, DDR2_733_745_Y740): 0.85; ratio of initial velocity of peptide phosphorylation (H1650 lysate, ENOG_37_49_Y43): 0.73; ratio of initial velocity of peptide phosphorylation (H1650 lysate, GSK3B_209_221_Y216): 0.79; ratio of initial velocity of peptide phosphorylation (H1650 lysate, MK10_216_228_T221/Y223): 0.69; ratio of initial velocity of peptide phosphorylation (H1650 lysate, NCF1_313_325_S315/S320): 0.92; ratio of initial velocity of peptide phosphorylation (H1650 lysate, NPT2_501_513_T508): 0.91; ratio of initial velocity of peptide phosphorylation (H1650 lysate, PECA1_706_718_Y713): 0.70; ratio of initial velocity of peptide phosphorylation (H1650 lysate, PGFRB_768_780_Y771/Y775/Y778): 0.32; ratio of initial velocity of peptide phosphorylation (H1650 lysate, PLCG1_764_776_Y771): 0.84; ratio of initial velocity of peptide phosphorylation (H1650 lysate, PRRX2_202_214_Y214): 0.91; ratio of initial velocity of peptide phosphorylation (H1650 lysate, RASA1_453_465_Y460): 0.98; ratio of initial velocity of peptide phosphorylation (H1650 lysate, STAT2_683_695_Y690): 0.85; ratio of initial velocity of peptide phosphorylation (H1650 lysate, SYN1_2_14_S9): 0.83; ratio of initial velocity of peptide phosphorylation (H1650 lysate, TYRO3_679_691_Y686): 0.90; ratio of initial velocity of peptide phosphorylation (H2009 lysate, CDK7_157_169_S164): 0.89; ratio of initial velocity of peptide phosphorylation (H2009 lysate, CREB1_122_134_Y134/S133): 0.97; ratio of initial velocity of peptide phosphorylation (H2009 lysate, DDR2_733_745_Y740): 0.95; ratio of initial velocity of peptide phosphorylation (H2009 lysate, ENOG_37_49_Y43): 0.81; ratio of initial velocity of peptide phosphorylation (H2009 lysate, GSK3B_209_221_Y216): 1.00; ratio of initial velocity of peptide phosphorylation (H2009 lysate, MK10_216_228_T221/Y223): 0.89; ratio of initial velocity of peptide phosphorylation (H2009 lysate, NCF1_313_325_S315/S320): 0.89; ratio of initial velocity of peptide phosphorylation (H2009 lysate, NPT2_501_513_T508): 0.76; ratio of initial velocity of peptide phosphorylation (H2009 lysate, PECA1_706_718_Y713): 0.79; ratio of initial velocity of peptide phosphorylation (H2009 lysate, PGFRB_768_780_Y771/Y775/Y778): 0.43; ratio of initial velocity of peptide phosphorylation (H2009 lysate, PLCG1_764_776_Y771): 0.81; ratio of initial velocity of peptide phosphorylation (H2009 lysate, PRRX2_202_214_Y214): 0.90; ratio of initial velocity of peptide phosphorylation (H2009 lysate, RASA1_453_465_Y460): 0.83; ratio of initial velocity of peptide phosphorylation (H2009 lysate, STAT2_683_695_Y690): 0.84; ratio of initial velocity of peptide phosphorylation (H2009 lysate, SYN1_2_14_S9): 0.93; ratio of initial velocity of peptide phosphorylation (H2009 lysate, TYRO3_679_691_Y686): 0.89; ratio of initial velocity of peptide phosphorylation (H2122 lysate, GSK3B_209_221_Y216): 0.84; ratio of initial velocity of peptide phosphorylation (H3255 lysate, GSK3B_209_221_Y216): 0.60; ratio of initial velocity of peptide phosphorylation (HEK239 lysate, CDK7_157_169_S164): 1.20; ratio of initial velocity of peptide phosphorylation (HEK239 lysate, CREB1_122_134_Y134/S133): 1.08; ratio of initial velocity of peptide phosphorylation (HEK239 lysate, DDR2_733_745_Y740): 1.00; ratio of initial velocity of peptide phosphorylation (HEK239 lysate, ENOG_37_49_Y43): 0.96; ratio of initial velocity of peptide phosphorylation (HEK239 lysate, GSK3B_209_221_Y216): 1.18; ratio of initial velocity of peptide phosphorylation (HEK239 lysate, MK10_216_228_T221/Y223): 0.75; ratio of initial velocity of peptide phosphorylation (HEK239 lysate, NCF1_313_325_S315/S320): 0.96; ratio of initial velocity of peptide phosphorylation (HEK239 lysate, NPT2_501_513_T508): 0.89; ratio of initial velocity of peptide phosphorylation (HEK239 lysate, PECA1_706_718_Y713): 1.00; ratio of initial velocity of peptide phosphorylation (HEK239 lysate, PLCG1_764_776_Y771): 1.02; ratio of initial velocity of peptide phosphorylation (HEK239 lysate, PRRX2_202_214_Y214): 1.30; ratio of initial velocity of peptide phosphorylation (HEK239 lysate, RASA1_453_465_Y460): 0.89; ratio of initial velocity of peptide phosphorylation (HEK239 lysate, STAT2_683_695_Y690): 1.03; ratio of initial velocity of peptide phosphorylation (HEK239 lysate, SYN1_2_14_S9): 0.92; ratio of initial velocity of peptide phosphorylation (HEK239 lysate, TYRO3_679_691_Y686): 0.93; ratio of initial velocity of peptide phosphorylation (HT1373 lysate, CDK7_157_169_S164): 1.10; ratio of initial velocity of peptide phosphorylation (HT1373 lysate, CREB1_122_134_Y134/S133): 0.95; ratio of initial velocity of peptide phosphorylation (HT1373 lysate, DDR2_733_745_Y740): 0.92; ratio of initial velocity of peptide phosphorylation (HT1373 lysate, ENOG_37_49_Y43): 0.87; ratio of initial velocity of peptide phosphorylation (HT1373 lysate, GSK3B_209_221_Y216): 0.97; ratio of initial velocity of peptide phosphorylation (HT1373 lysate, MK10_216_228_T221/Y223): 0.87; ratio of initial velocity of peptide phosphorylation (HT1373 lysate, NCF1_313_325_S315/S320): 1.02; ratio of initial velocity of peptide phosphorylation (HT1373 lysate, NPT2_501_513_T508): 1.00; ratio of initial velocity of peptide phosphorylation (HT1373 lysate, PECA1_706_718_Y713): 0.86; ratio of initial velocity of peptide phosphorylation (HT1373 lysate, PLCG1_764_776_Y771): 0.76; ratio of initial velocity of peptide phosphorylation (HT1373 lysate, PRRX2_202_214_Y214): 0.91; ratio of initial velocity of peptide phosphorylation (HT1373 lysate, RASA1_453_465_Y460): 0.78; ratio of initial velocity of peptide phosphorylation (HT1373 lysate, STAT2_683_695_Y690): 0.97; ratio of initial velocity of peptide phosphorylation (HT1373 lysate, SYN1_2_14_S9): 0.92; ratio of initial velocity of peptide phosphorylation (HT1373 lysate, TYRO3_679_691_Y686): 0.87; ratio of initial velocity of peptide phosphorylation (MCF7 lysate, CDK7_157_169_S164): 0.89; ratio of initial velocity of peptide phosphorylation (MCF7 lysate, CREB1_122_134_Y134/S133): 0.85; ratio of initial velocity of peptide phosphorylation (MCF7 lysate, DDR2_733_745_Y740): 1.15; ratio of initial velocity of peptide phosphorylation (MCF7 lysate, ENOG_37_49_Y43): 0.83; ratio of initial velocity of peptide phosphorylation (MCF7 lysate, GSK3B_209_221_Y216): 0.89; ratio of initial velocity of peptide phosphorylation (MCF7 lysate, MK10_216_228_T221/Y223): 1.03; ratio of initial velocity of peptide phosphorylation (MCF7 lysate, NCF1_313_325_S315/S320): 0.90; ratio of initial velocity of peptide phosphorylation (MCF7 lysate, NPT2_501_513_T508): 0.90; ratio of initial velocity of peptide phosphorylation (MCF7 lysate, PECA1_706_718_Y713): 0.74; ratio of initial velocity of peptide phosphorylation (MCF7 lysate, PLCG1_764_776_Y771): 0.78; ratio of initial velocity of peptide phosphorylation (MCF7 lysate, PRRX2_202_214_Y214): 0.90; ratio of initial velocity of peptide phosphorylation (MCF7 lysate, RASA1_453_465_Y460): 0.81; ratio of initial velocity of peptide phosphorylation (MCF7 lysate, STAT2_683_695_Y690): 0.91; ratio of initial velocity of peptide phosphorylation (MCF7 lysate, SYN1_2_14_S9): 0.92
